We go through 54 molecules from the supplement of paper PMC9226226.

The structures appear in SMILES notation. Values joined by “and” are separate entries in the source; they are usually repeats but may differ in a detail not shown here. Equal values may be shown once. Some of the results follow. Several reference drugs read as weak here; read low effects with care.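 The cells are human mesenchymal stem cells that lack the Werner syndrome gene and age prematurely. Growth was tracked by automated live-cell imaging in three biological repeats, and the twenty drugs that most raised growth over vehicle were taken forward, with no fixed cutoff stated.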

This experiment has as its system Werner syndrome hMSCs (WRN-/-). Nature of the experiment: relative cell density (fold change vs vehicle control); higher = more proliferation (geroprotective). To be noted: concentration (umol/L): 1, 6 days.

For the molecule `CNC[C@H](O)[C@@H](O)[C@H](O)[C@H](O)CO.CNC[C@H](O)[C@@H](O)[C@H](O)[C@H](O)CO.O=C([O-])CN(CCN(CC(=O)[O-])CC(=O)O)CCN(CC(=O)[O-])CC(=O)O.[Gd+3]`, the relative cell density (vehicle: DMSO) was determined as 1.34.

For the setting “vehicle: DMSO”, `COc1ccc(CC(C)NCC(O)c2ccc(O)c(NC=O)c2)cc1` (centres undefined) returned a relative cell density of 1.25.

As to `CC(C)C[C@H](NC(=O)[C@H](Cc1ccccc1)NC(=O)c1cnccn1)B(O)O`, where the note is “vehicle: DMSO”, the relative cell density was found to be 0.216.

Molecule `CS(=O)(=O)c1ccc(C(=O)Nc2ccc(Cl)c(-c3ccccn3)c2)c(Cl)c1` registered a relative cell density (vehicle: DMSO) of 1.3.

Regarding `Oc1c(Br)cc(Br)c2cccnc12`, where the note is “vehicle: DMSO”, the relative cell density was determined as 0.0845.

Molecule `C[C@H](N[C@@H](CCc1ccccc1)C(=O)O)C(=O)N1CCC[C@H]1C(=O)O` displayed a relative cell density (vehicle: DMSO) of 0.748.

Molecule `NC(=O)N1CCC(CC(=O)N2CCC([C@H]3c4ncc(Br)cc4CCc4cc(Cl)cc(Br)c43)CC2)CC1` had a relative cell density (vehicle: DMSO) of 0.624.

For the setting “vehicle: DMSO”, `COCCCC/C(=N\OCCN)c1ccc(C(F)(F)F)cc1` yielded a relative cell density of 1.11.

`COC(=O)[C@H](c1ccccc1Cl)N1CCc2sccc2C1`: the relative cell density (vehicle: DMSO) was determined as 0.928.

Molecule `CCCSc1ccc2[nH]c(NC(=O)OC)nc2c1` yielded a relative cell density (vehicle: DMSO) of 0.357.

Under “vehicle: DMSO”, `Cc1c(Cl)cccc1Nc1ccccc1C(=O)O` displayed a relative cell density of 1.36.

Consider `CC=C(C)C(=O)OC1C(OC(C)=O)C2(CO)C(O)CC3(C)C(=CCC4C5(C)CCC(OC6OC(C(=O)O)C(OC7OC(CO)C(O)C(O)C7O)C(O)C6OC6OC(CO)C(O)C(O)C6O)C(C)(CO)C5CCC43C)C2CC1(C)C` (centres undefined), for which, where the note is “vehicle: DMSO”, the relative cell density stood at 0.0072.

In the case of `CO[C@H]1/C=C/O[C@@]2(C)Oc3c(C)c(O)c4c(O)c(c(/C=N/N5CCN(C)CC5)c(O)c4c3C2=O)NC(=O)/C(C)=C\C=C\[C@H](C)[C@H](O)[C@@H](C)[C@@H](O)[C@@H](C)[C@H](OC(C)=O)[C@@H]1C`, the relative cell density (vehicle: DMSO) stood at 0.918.

The molecule `Cc1c(C(C)C)c(=O)n(-c2ccccc2)n1C` came in with a relative cell density (vehicle: DMSO) of 1.3.

Regarding `CCc1ccc(CCOc2ccc(CC3SC(=O)NC3=O)cc2)nc1` (centres undefined), the relative cell density (vehicle: DMSO) came to 1.27.

`CNC[C@@H](O)c1ccc(O)c(O)c1` registered a relative cell density (vehicle: DMSO) of 1.18.

For `CC(C)Nc1cc(-c2c[nH]c(C(=O)N[C@H](CO)c3cccc(Cl)c3)c2)c(Cl)cn1`, the relative cell density (vehicle: DMSO) was found to be 0.738.

Regarding `Cc1ccc(N(CC2=NCCN2)c2cccc(O)c2)cc1`, the relative cell density (vehicle: DMSO) was 1.31.

On to `Clc1ccc2c(c1)C(N1CCNCC1)=Nc1ccccc1O2`, for which, for the setting “vehicle: Water”, the relative cell density came to 1.18.

`O=C1c2ccccc2C(=O)C1c1ccccc1` gave a relative cell density (vehicle: DMSO) of 1.35.

`O=C(Cn1ccnc1[N+](=O)[O-])NCc1ccccc1`: where the note is “vehicle: DMSO”, the relative cell density came to 1.05.

`O=C(c1cc(Cc2n[nH]c(=O)c3ccccc23)ccc1F)N1CCN(C(=O)C2CC2)CC1` displayed a relative cell density (vehicle: DMSO) of 0.692.

`O=C(O)CCc1nc(-c2ccccc2)c(-c2ccccc2)o1` returned a relative cell density (vehicle: DMSO) of 1.16.

For the setting “vehicle: DMSO”, `CC(C)(Oc1ccc(CCNC(=O)c2ccc(Cl)cc2)cc1)C(=O)O` gave a relative cell density of 0.801.

The molecule `OCCN1CCN(CCCN2c3ccccc3Sc3ccc(C(F)(F)F)cc32)CC1` displayed a relative cell density (vehicle: DMSO) of 1.25.

As for `c1ccc(CC2=NCCN2)cc1`, the relative cell density (vehicle: DMSO) turned out to be 1.24.

Where the note is “vehicle: DMSO”, `COc1cccc(-c2c(C)n(Cc3c(F)cccc3C(F)(F)F)c(=O)n(C[C@H](NCCCC(=O)O)c3ccccc3)c2=O)c1F` came in with a relative cell density of 1.24.

`CC(C(=O)O)c1ccc(CC2CCCC2=O)cc1` (centres undefined): the relative cell density (vehicle: DMSO) was found to be 1.22.

For the molecule `CC[C@H]1OC(=O)[C@H](C)[C@@H](O[C@H]2C[C@@](C)(OC)[C@@H](O)[C@H](C)O2)[C@H](C)[C@@H](O[C@@H]2O[C@H](C)C[C@H](N(C)C)[C@H]2O)[C@](C)(O)C[C@@H](C)C(=O)[C@H](C)[C@@H](O)[C@]1(C)O`, the relative cell density (vehicle: DMSO) came to 0.923.

Molecule `Nc1c(CC(=O)O)cccc1C(=O)c1ccccc1` registered a relative cell density (vehicle: DMSO) of 1.26.

With `CCCCOCCOCCOCc1cc2c(cc1CCC)OCO2`, the relative cell density (vehicle: DMSO) was found to be 1.01.

For the molecule `CC(=O)Oc1ccccc1C(=O)Nc1ncc([N+](=O)[O-])s1`, the relative cell density (vehicle: DMSO) came out at 1.04.

For `O=C(O)c1cn(-c2ccc(F)cc2)c2cc(N3CCNCC3)c(F)cc2c1=O`, the relative cell density (vehicle: Water) amounted to 1.05.

For the molecule `C[C@@H]1C[C@H]2[C@@H]3C[C@H](F)C4=CC(=O)C=C[C@]4(C)[C@@]3(F)[C@@H](O)C[C@]2(C)[C@@]1(O)C(=O)CO`, the relative cell density (vehicle: DMSO) worked out at 0.845.

Regarding `O=C(NC[C@H]1CN(c2ccc(N3CCOCC3=O)cc2)C(=O)O1)c1ccc(Cl)s1`, under “vehicle: DMSO”, the relative cell density was determined as 0.975.

Turning to `Cc1nnc(C(=O)NC(C)(C)c2nc(C(=O)NCc3ccc(F)cc3)c(O)c(=O)n2C)o1`, under “vehicle: DMSO”, the relative cell density was determined as 1.11.

`CCOC(=O)[C@@H](N)Cc1ccc(-c2cc(O[C@H](c3ccc(Cl)cc3-n3ccc(C)n3)C(F)(F)F)nc(N)n2)cc1`: the relative cell density (vehicle: DMSO) was 0.952.

Regarding `COc1c2occc2cc2ccc(=O)oc12`, for the setting “vehicle: DMSO”, the relative cell density was 1.08.

Turning to `N=C(NCCCCCCNC(=N)NC(=N)Nc1ccc(Cl)cc1)NC(=N)Nc1ccc(Cl)cc1`, the relative cell density (vehicle: DMSO) was 1.11.

With `CN1CCN(C2=Nc3ccccc3Oc3ccc(Cl)cc32)CC1`, the relative cell density (vehicle: DMSO) stood at 1.29.

For `Clc1ccc(CCC(Cn2ccnc2)Sc2c(Cl)cccc2Cl)cc1` (centres undefined), the relative cell density (vehicle: DMSO) turned out to be 1.21.

The molecule `N#Cc1ccc(C(c2ccc(C#N)cc2)n2cncn2)cc1` gave a relative cell density (vehicle: DMSO) of 0.942.

The molecule `C[N+]1(C)CCC(OC(=O)C(O)(c2ccccc2)C2CCCC2)C1` (centres undefined) returned a relative cell density (vehicle: DMSO) of 1.49.

Under “vehicle: Water”, `NC(=O)CCC(N)C(=O)O` (centres undefined) yielded a relative cell density of 0.939.

Consider `C#Cc1cccc(Nc2ncnc3cc(OC)c(OCCCCCCC(=O)NO)cc23)c1`, for which the relative cell density (vehicle: DMSO) came out at 0.496.

In turn, `CC(=O)S[C@@H]1CC2=CC(=O)CC[C@]2(C)[C@H]2CC[C@@]3(C)[C@@H](CC[C@@]34CCC(=O)O4)[C@H]12` displayed a relative cell density (vehicle: DMSO) of 0.874.

Turning to `CCCc1cc(C(N)=S)ccn1`, the relative cell density (vehicle: DMSO) worked out at 1.01.

`CO[C@H]1/C=C/O[C@@]2(C)Oc3c(C)c(O)c4c(O)c(c(/C=N/N5CCN(C6CCCC6)CC5)c(O)c4c3C2=O)NC(=O)/C(C)=C\C=C\[C@H](C)[C@H](O)[C@@H](C)[C@@H](O)[C@@H](C)[C@H](OC(C)=O)[C@@H]1C` showed a relative cell density (vehicle: DMSO) of 1.

For the setting “vehicle: DMSO”, `N=C(N)NC(=N)NCCc1ccccc1` had a relative cell density of 1.09.

Turning to `CN1CCC(=C2c3ccccc3C=Cc3ccccc32)CC1`, the relative cell density (vehicle: DMSO) was 0.96 and 1.29.

As to `CC(C)Oc1ccc(-c2nc(-c3cccc4c3CC[C@@H]4NCCO)no2)cc1C#N`, for the setting “vehicle: DMSO”, the relative cell density is 1.02.

Take `CC[C@H]1[C@@H](O)[C@@H]2[C@H](CC[C@]3(C)[C@@H]([C@H](C)CCC(=O)O)CC[C@@H]23)[C@@]2(C)CC[C@@H](O)C[C@@H]12`: the relative cell density (vehicle: DMSO) worked out at 0.969.

Turning to `CNC1CCCN(c2c(F)cc3c(=O)c(C(=O)O)cn(C4CC4)c3c2OC)C1` (centres undefined), the relative cell density (vehicle: DMSO) was found to be 1.16.

Turning to `C[C@H]1O[C@H](O[C@H]2[C@H](O)[C@@H](O)[C@@H](O[C@H]3[C@H](O)[C@@H](O)C(O)O[C@@H]3CO)O[C@@H]2CO)[C@H](O)[C@@H](O)[C@@H]1N[C@H]1C=C(CO)[C@@H](O)[C@H](O)[C@H]1O` (some centres undefined), the relative cell density (vehicle: DMSO) worked out at 1.04.
